Laboratory results taken from PMC13043812.
Results are given in words; binding and its absence hold for the method and conditions named. Binding seen in cells or lysates may run through a third protein. A yes stands for co-enrichment or nearness to the bait. Other partners may have been found.

The chains behind the UniProt entries cited, without tags or fusion partners. Where a name states a change or a piece, a line headed by the entry shows the natural chain unless it says otherwise.
UniProt P96874: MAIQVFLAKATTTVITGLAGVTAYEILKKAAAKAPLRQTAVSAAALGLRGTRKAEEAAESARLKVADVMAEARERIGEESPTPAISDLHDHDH

Tests used:
[1] = target: PacL1 protein fused to an internal ALFA tag (M. tuberculosis) (UniProt P96874); assay: proximity labelling
[2] = target: PacL1 protein fused to a C-terminal ALFA tag (M. tuberculosis) (UniProt P96874); assay: proximity labelling

B1: Rv2083 (protein, UniProt P9WLK3 1-314)
chain: MTSIESHPEQYWAAAGRPGPVPLALGPVHPGGPTLIDLLMALFGLSTNADLGGANADIEGDDTDRRAHAADAARKFSANEANAAEQMQGVGAQGMAQMASGIGGALSGALGGVMGPLTQLPQQAMQAGQGAMQPLMSAMQQAQGADGLAAVDGARLLDSIGGEPGLGSGAGGGDVGGGGAGGTTPTGYLGPPPVPTSSPPTTPAGAPTKSATMPPPGGASPASAHMGAAGMPMVPPGAMGARGEGSGQEKPVEKRLTAPAVPNGQPVKGRLTVPPSAPTTKPTDGKPVVRRRILLPEHKDFGRIAPDEKTDAGE
[1]
  binding: binds
[2]
  binding: binds

B2: Alkyl hydroperoxide reductase subunit C (protein, UniProt P9WQB7 1-195)
chain: MPLLTIGDQFPAYQLTALIGGDLSKVDAKQPGDYFTTITSDEHPGKWRVVFFWPKDFTFVCPTEIAAFSKLNDEFEDRDAQILGVSIDSEFAHFQWRAQHNDLKTLPFPMLSDIKRELSQAAGVLNADGVADRVTFIVDPNNEIQFVSATAGSVGRNVDEVLRVLDALQSDELCACNWRKGDPTLDAGELLKASA
[1]
  binding: binds
[2]
  binding: binds

B3: MoeX, molybdopterin biosynthesis protein (protein, UniProt A5U339 1-330)
chain: MIIELMRRVVGLAQGATAEVAVYGDRDRDLAERWCANTGNTLVRADVDQTGVGTLVVRRGHPPDPASVLGPDRLPGVRLWLYTNFHCNLCCDYCCVSSSPSTPHRELGAERIGRIVGEAARWGVRELFLTGGEPFLLPDIDTIIATCVKQLPTTVLTNGMVFKGRGRRALESLPRGLALQISLDSATPELHDAHRGAGTWVKAVAGIRLALSLGFRVRVAATVASPAPGELTAFHDFLDGLGIAPGDQLVRPIALEGAASQGVALTRESLVPEVTVTADGVYWHPVAATDERALVTRTVEPLTPALDMVSRLFAEQWTRAAEEAALFPCA
[1]
  binding: binds
[2]
  binding: binds

B4: CtpC, metal cation transporter P-type ATPase (protein, UniProt P9WPT5 1-718)
chain: MTLEVVSDAAGRMRVKVDWVRCDSRRAVAVEEAVAKQNGVRVVHAYPRTGSVVVWYSPRRADRAAVLAAIKGAAHVAAELIPARAPHSAEIRNTDVLRMVIGGVALALLGVRRYVFARPPLLGTTGRTVATGVTIFTGYPFLRGALRSLRSGKAGTDALVSAATVASLILRENVVALTVLWLLNIGEYLQDLTLRRTRRAISELLRGNQDTAWVRLTDPSAGSDAATEIQVPIDTVQIGDEVVVHEHVAIPVDGEVVDGEAIVNQSAITGENLPVSVVVGTRVHAGSVVVRGRVVVRAHAVGNQTTIGRIISRVEEAQLDRAPIQTVGENFSRRFVPTSFIVSAIALLITGDVRRAMTMLLIACPCAVGLSTPTAISAAIGNGARRGILIKGGSHLEQAGRVDAIVFDKTGTLTVGRPVVTNIVAMHKDWEPEQVLAYAASSEIHSRHPLAEAVIRSTEERRISIPPHEECEVLVGLGMRTWADGRTLLLGSPSLLRAEKVRVSKKASEWVDKLRRQAETPLLLAVDGTLVGLISLRDEVRPEAAQVLTKLRANGIRRIVMLTGDHPEIAQVVADELGIDEWRAEVMPEDKLAAVRELQDDGYVVGMVGDGINDAPALAAADIGIAMGLAGTDVAVETADVALANDDLHRLLDVGDLGERAVDVIRQNYGMSIAVNAAGLLIGAGGALSPVLAAILHNASSVAVVANSSRLIRYRLDR
[1]
  binding: binds
[2]
  binding: binds
